Reference: PubChem BioAssay AID1487 (National Center for Advancing Translational Sciences (NCATS), 2009)
This is one part of the list. These are further read-outs of the screen, such as a control signal, another cell line or another target. No call is given for them. Most of these compounds were active or inconclusive in the main read-out, so they are no random draw. Words in brackets tell the shape of the fitted curve; partial curves, single points and poor fits give uncertain potencies.

Assay: qHTS Assay for Modulators of Lamin A Splicing
Settings: HeLa LMNA splicing GFP/RFP minigene ratio, 48 h
Outline: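 Read-out is the ratio of GFP to DsRed2 object intensity, acquired by 488 nm laser-scanning cytometry on HeLa lamin A-EGFP minigene reporter cells. Compound incubation 48 hrs at 37 °C in Opti-MEM with 2% FBS; DMSO 0.5% final.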

[1] = measured here: GFP splicing reporter channel
[2] = measured here: RFP viability control channel

Row | Structure (SMILES) | AC50 [1] | AC50 [2]
1 | CCS(=O)(=O)c1ccc(N)cc1 | 35.5 µM [rising, single point] | 
2 | O=C(Nc1ccc(Cl)cc1)C1CC(=O)n2c(nc3ccccc32)N1 (stereo not given) |  | 10 µM [falling, partial curve]
3 | CCOc1ccc(C2C=C(c3ccccc3)Nc3nnnn32)cc1 (stereo not given) |  | 22.4 µM [rising, single point]
4 | Cc1ccc(CC(=O)Nc2ncc([N+](=O)[O-])s2)cc1 |  | 35.5 µM [rising, single point]
5 | Cc1noc(C)c1CSCC(=O)N1CCN(c2ccc(F)cc2)CC1 |  | 12.6 µM [rising, partial curve]
6 | CC1CC(OC(=O)c2ccccc2O)CC(C)(C)C1 (stereo not given) | 35.5 µM [falling, single point] | 35.5 µM [falling, single point]
7 | O=C(COc1ccc(C(=O)c2ccccc2)cc1)NC1CCCCC1 | 3.16 µM [rising, full curve, poor fit] | 11.2 µM [rising, partial curve]
8 | O=C(Nc1ccc(Oc2ccc(NC(=O)Nc3ccccc3Cl)cc2)cc1)Nc1ccccc1Cl | 35.5 µM [falling, single point] | 12.6 µM [falling, partial curve]
9 | CCOC(=O)c1cnc2c(Cl)c(Cl)ccc2c1N1CCN(C)CC1 | 22.4 µM [rising, single point] | 35.5 µM [rising, single point]
10 | COC(=O)c1cc(CNC(=O)c2cccc(Cl)c2Cl)ccc1OC | 20 µM [rising, partial curve, poor fit] | 22.4 µM [rising, single point]
11 | COc1ccc(CN2CCN(CC(O)Cn3c4ccccc4c4ccccc43)CC2)cc1 (stereo not given) | 35.5 µM [falling, single point] | 35.5 µM [falling, single point]
12 | COCCNC(=O)CSc1c(C)cnc2c1c(=O)n(C)c(=O)n2C |  | 0.501 µM [rising, full curve, poor fit]
13 | CC1CCc2c(sc3ncnc(NCc4cccnc4)c23)C1 (stereo not given) | 0.316 µM [falling, full curve, poor fit] | 
14 | C[C@@H](CN1CCC(Cc2ccccc2)CC1)[C@@H](O)c1ccc(O)cc1 | 0.141 µM [rising, full curve, poor fit] | 
15 | Cc1ccc(-n2c(NN)nc3ccccc3c2=O)c(C)c1 | 35.5 µM [rising, single point] | 
16 | CCN(c1ccccc1)S(=O)(=O)c1cccc(C(=O)NCC(c2cccs2)N(C)C)c1 (stereo not given) | 0.0355 µM [falling, full curve, poor fit] | 
17 | CN(C)C(N)=NCCC[C@H](N)C(=O)O | 0.141 µM [falling, full curve] | 
18 | O=[N+]([O-])c1ccc2cn(-c3ccccc3)nc2c1 | 20 µM [rising, single point] | 11.2 µM [rising, partial curve]
19 | CN(C)S(=O)(=O)c1ccc(NC(=O)C2COc3ccccc3O2)cc1 (stereo not given) |  | 12.6 µM [rising, single point]

Row | Structure (SMILES) | AC50 [1] | AC50 [2]
20 | Cc1ccc(-n2nnc3c(=O)n(CC(=O)NCc4ccco4)cnc32)cc1 |  | 25.1 µM [rising, single point]
21 | CCc1ccc(NC(=S)NC2CCN(Cc3ccccc3)CC2)cc1 |  | 14.1 µM [rising, partial curve, poor fit]
22 | O=C1C2C(C(=O)N1/N=C/c1ccc([N+](=O)[O-])o1)C1C=CC2C12CC2 (stereo not given) | 35.5 µM [rising, single point] | 35.5 µM [rising, single point]
23 | Cc1ccc(NC2=C(NCCO)C(=O)c3ccccc3C2=O)cc1 |  | 20 µM [rising, single point]
24 | COc1cccc2cc(C(=O)N3CCN(c4ccc(C)cc4C)CC3)c(=O)oc12 |  | 22.4 µM [rising, single point]
25 | COc1ccccc1-c1cc2nc(C)c(CCC(=O)NCc3ccco3)c(C)n2n1 |  | 31.6 µM [rising, partial curve, poor fit]
26 | NC(=O)c1cc(Cc2ccccc2)sc1NC(=O)c1ccco1 |  | 35.5 µM [rising, single point]
27 | COc1ccc(-c2nc(/C=C3\C(C)=Nc4ccccc43)c(O)o2)cc1 |  | 31.6 µM [rising, single point]
28 | COc1cccc(C(=O)NC(=S)Nc2ccc(N(C)C)cc2)c1 | 20 µM [rising, single point] | 14.1 µM [rising, single point]
29 | COc1ccc(-c2[nH]ncc2CN(C)CC2CCCCO2)cc1F (stereo not given) | 0.158 µM [falling, full curve, poor fit] | 0.178 µM [falling, full curve]
30 | COc1ccc(C(=O)NN/C(C)=C/C(=O)C(F)(F)C(F)(F)C(F)(F)F)cc1 |  | 11.2 µM [rising, partial curve]
31 | CSC(=S)N/N=C(\C)c1ccccc1 |  | 7.08 µM [rising, partial curve]
32 | COc1ccc(NS(=O)(=O)c2ccc(N3CCCC3)c(NC(=S)Nc3ccc(SC(F)F)cc3)c2)cc1 |  | 10 µM [rising, partial curve]
33 | COc1ccc(CCNC(=O)c2ccc3c(c2)nc(C)n3-c2ccc(Br)cc2)cc1OC | 0.01 µM [falling, full curve] | 
34 | CC(C)Oc1ccc(/C=N/NC(N)=S)cc1 | 28.2 µM [falling, single point] | 6.31 µM [rising, single point]
35 | COc1ccc(-c2csc(N(CC3CCCO3)C(=O)c3ccco3)n2)cc1 (stereo not given) |  | 12.6 µM [rising, partial curve]
36 | Cc1ccc2nc(-c3ccccc3Cl)cc(C(=O)Nc3cc(C)on3)c2c1 | 11.2 µM [rising, single point] | 
37 | COc1ccc(CC(=O)OCc2cc(=O)n3cc(Br)ccc3n2)cc1OC |  | 17.8 µM [rising, partial curve, poor fit]
38 | Cn1cc(/C=C/C(=O)N2CCCC(C(=O)c3ccc(C(C)(C)C)cc3)C2)cn1 (stereo not given) | 4.47 µM [falling, full curve, poor fit] | 5.01 µM [falling, full curve, poor fit]

Reformatted as tab-separated lines: part of the list above.
Row	Structure (SMILES)	AC50 [1]	AC50 [2]
29	COc1ccc(-c2[nH]ncc2CN(C)CC2CCCCO2)cc1F (stereo not given)	0.158 µM [falling, full curve, poor fit]	0.178 µM [falling, full curve]
30	COc1ccc(C(=O)NN/C(C)=C/C(=O)C(F)(F)C(F)(F)C(F)(F)F)cc1		11.2 µM [rising, partial curve]
31	CSC(=S)N/N=C(\C)c1ccccc1		7.08 µM [rising, partial curve]
